{"sequences": {"note": "Sequences of proteins named here, by UniProt entry; tags and fusion partners are left off. Residues count along the entry.", "UniProt P14867, 28-456": "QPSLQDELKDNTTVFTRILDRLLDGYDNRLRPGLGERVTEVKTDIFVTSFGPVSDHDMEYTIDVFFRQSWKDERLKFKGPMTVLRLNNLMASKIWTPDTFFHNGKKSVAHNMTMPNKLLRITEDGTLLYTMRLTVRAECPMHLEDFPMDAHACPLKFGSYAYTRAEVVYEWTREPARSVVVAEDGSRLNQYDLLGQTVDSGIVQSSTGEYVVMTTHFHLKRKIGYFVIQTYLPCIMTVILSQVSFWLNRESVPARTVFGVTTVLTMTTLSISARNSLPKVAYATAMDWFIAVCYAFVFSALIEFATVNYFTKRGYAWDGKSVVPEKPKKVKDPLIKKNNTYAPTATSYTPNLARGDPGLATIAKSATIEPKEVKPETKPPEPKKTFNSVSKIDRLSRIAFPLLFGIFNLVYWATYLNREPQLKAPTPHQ", "UniProt P28472, 26-473": "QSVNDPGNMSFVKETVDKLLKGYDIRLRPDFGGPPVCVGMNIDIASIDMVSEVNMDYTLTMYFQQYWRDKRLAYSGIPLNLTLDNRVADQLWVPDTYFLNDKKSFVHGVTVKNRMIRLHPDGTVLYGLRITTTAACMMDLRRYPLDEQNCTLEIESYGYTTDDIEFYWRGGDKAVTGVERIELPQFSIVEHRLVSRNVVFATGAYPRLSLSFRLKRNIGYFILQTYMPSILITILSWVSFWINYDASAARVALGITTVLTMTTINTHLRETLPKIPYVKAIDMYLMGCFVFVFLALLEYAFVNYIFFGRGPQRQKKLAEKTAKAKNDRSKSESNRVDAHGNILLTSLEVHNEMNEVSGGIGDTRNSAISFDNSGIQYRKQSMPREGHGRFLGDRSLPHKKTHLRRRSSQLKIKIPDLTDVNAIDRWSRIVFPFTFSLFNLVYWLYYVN"}, "source": "paper PMC6071317", "about": "(European journal of medicinal chemistry, 2017)", "target": "human α1β3γ2 GABAA receptors (Homo sapiens, UniProt P14867+P28472)", "experiment": "Modulation of [3H]muscimol binding to GABAA receptor membranes from HEK293 cells", "conditions": "2 nM [3H]muscimol"}
{"smiles": "CC(=O)[C@H]1CC[C@H]2[C@@H]3CC[C@H]4C[C@H](O)CC[C@]4(C)[C@H]3C(=O)C[C@]12C", "note": "[alphaxalone, Alphaxalone, reference compound]", "values": [{"measurement": "Efficacy of modulation of [3H]muscimol binding", "result": "235 ± 2", "unit": "%"}, {"measurement": "Hill coefficient of enhancement of [3H]muscimol binding", "result": "1.0 ± 0.1"}]}
